Two molecules from doi:10.1101/2025.10.17.683101 can be followed below.

The chains behind the UniProt entries cited, without tags or fusion partners.
UniProt Q60867: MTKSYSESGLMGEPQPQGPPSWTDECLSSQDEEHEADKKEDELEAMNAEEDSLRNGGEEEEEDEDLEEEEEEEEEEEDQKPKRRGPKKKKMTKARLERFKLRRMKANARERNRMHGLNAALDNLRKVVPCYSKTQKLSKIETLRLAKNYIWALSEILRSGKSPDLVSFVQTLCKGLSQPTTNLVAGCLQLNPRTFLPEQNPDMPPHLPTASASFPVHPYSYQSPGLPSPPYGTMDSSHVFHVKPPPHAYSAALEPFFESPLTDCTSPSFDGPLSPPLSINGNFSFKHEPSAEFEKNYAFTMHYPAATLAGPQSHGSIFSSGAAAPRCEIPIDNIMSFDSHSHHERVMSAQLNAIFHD
UniProt O09106: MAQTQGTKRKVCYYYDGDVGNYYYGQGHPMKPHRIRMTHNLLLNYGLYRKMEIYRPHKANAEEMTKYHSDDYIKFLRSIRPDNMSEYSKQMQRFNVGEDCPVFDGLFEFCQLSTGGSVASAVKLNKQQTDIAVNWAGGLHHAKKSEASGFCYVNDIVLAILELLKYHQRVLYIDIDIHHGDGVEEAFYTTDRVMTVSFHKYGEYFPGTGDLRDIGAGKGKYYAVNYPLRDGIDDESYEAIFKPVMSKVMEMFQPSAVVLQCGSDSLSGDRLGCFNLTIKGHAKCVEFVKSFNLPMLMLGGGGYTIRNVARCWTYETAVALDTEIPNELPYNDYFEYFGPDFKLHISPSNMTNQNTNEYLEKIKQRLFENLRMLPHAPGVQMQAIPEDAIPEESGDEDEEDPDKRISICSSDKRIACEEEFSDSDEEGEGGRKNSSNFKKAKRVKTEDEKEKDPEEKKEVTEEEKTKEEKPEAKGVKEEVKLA

The assay addresses NeuroD1 (mouse (endogenous in P7 cerebellum)) (UniProt Q60867). Briefly: co-IP; anti-NeuroD1 antibody on Dynabeads Protein A incubated with RIPA lysate of P7 wild-type mouse cerebellum, 4°C, 2 hours; five washes (10 mM Tris-HCl, 150 mM NaCl, 0.5 mM EDTA, 0.05% NP40); immunoblots for Sin3A, Hdac1 and NeuroD1; nonspecific rabbit IgG as control. A general note: Immunoblotting shows a protein as a band on a membrane.

These are yes or no findings as the source states them, for the method shown. Binding seen in cells or lysates may run through a third protein. Some binding calls cover weakened binding; strength is not graded here.

In the case of Hdac1 (from UniProt O09106 1-482), the binding result is on record as “binds”.

B1: Sin3A (protein, UniProt Q60520 1-1274)
chain: MKRRLDDQESPVYAAQQRRIPGSTEAFSHQHRVLAPAPPVYEAVSETMQSATGIQYSVAPNYQVSAVPQSSGSHGPAIAAVHSSHHHPTAVQPHGGQVVQSHAHPAPPVAPVQGQQQFQRLKVEDALSYLDQVKLQFGSQPQVYNDFLDIMKEFKSQSIDTPGVISRVSQLFKGHPDLIMGFNTFLPPGYKIEVQTNDMVNVTTPGQVHQIPTHGIQPQPQPPPQHPSQPSSQSAPTPAQPAPQPTAAKVSKPSQLQAHTPASQQTPPLPPYASPRSPPVQPHTPVTISLGTAPSLQNNQPVEFNHAINYVNKIKNRFQGQPDIYKAFLEILHTYQKEQRNAKEAGGNYTPALTEQEVYAQVARLFKNQEDLLSEFGQFLPDANSSVLLSKTTAEKVDSVRNDHGGTVKKPQLNNKPQRPSQNGCQIRRHSGTGATPPVKKKPKLMSLKESSMADASKHGVGTESLFFDKVRKALRSAEAYENFLRCLVIFNQEVISRAELVQLVSPFLGKFPELFNWFKNFLGYKESVHLESFPKERATEGIAMEIDYASCKRLGSSYRALPKSYQQPKCTGRTPLCKEVLNDTWVSFPSWSEDSTFVSSKKTQYEEHIYRCEDERFELDVVLETNLATIRVLEAIQKKLSRLSAEEQAKFRLDNTLGGTSEVIHRKALQRIYADKAADIIDGLRKNPSIAVPIVLKRLKMKEEEWREAQRGFNKVWREQNEKYYLKSLDHQGINFKQNDTKVLRSKSLLNEIESIYDERQEQATEENAGVPVGPHLSLAYEDKQILEDAAALIIHHVKRQTGIQKEDKYKIKQIMHHFIPDLLFAQRGDLSDVEEEEEEEMDVDEATGAPKKHNGVGGSPPKSKLLFSNTAAQKLRGMDEVYNLFYVNNNWYIFMRLHQILCLRLLRICSQAERQIEEENREREWEREVLGIKRDKSDSPAIQLRLKEPMDVDVEDYYPAFLDMVRSLLDGNIDSSQYEDSLREMFTIHAYIAFTMDKLIQSIVRQLQHIVSDEVCVQVTDLYLAENNNGATGGQLNSQTSRSLLESAYQRKAEQLMSDENCFKLMFIQSQGQVQLTVELLDTEEENSDDPVEAERWSDYVERYMSSDTTSPELREHLAQKPVFLPRNLRRIRKCQRGREQQEKEGKEGNSKKTMENVESLDKLECRFKLNSYKMVYVIKSEDYMYRRTALLRAHQSHERVSKRLHQRFQAWVDKWTKEHVPREMAAETSKWLMGEGLEGLVPCTTTCDTETLHFVSINKYRVKYGTVFKAP
B1: the binding result is listed as “binds”.
